For at least one entry, the source does not settle the construct or the ends of the probe. For part of these data: A weaker result is weaker than the reference pair of the same experiment. Where a protein sequence is shown, tags need not be part of it. For part of these data: Results from cells or extracts need not show a direct contact.
Experiments:
[1] = biological target: T1, GP73 in tumor cell lines (Western blot) (UniProt Q8NBJ4); assay: aptamer Western blot; conditions: biotin-A10-2 5 ng/uL used as primary probe on tumor cell lines; 20 mM HEPES, 120 mM NaCl, 5 mM KCl, 1 mM CaCl2, 1 mM MgCl2, pH 7.3, 37 C, 2 h; plates blocked with 3% BSA; washes with binding buffer; protein in an extract; single-stranded DNA
T1 sequence (looked up, limits assumed): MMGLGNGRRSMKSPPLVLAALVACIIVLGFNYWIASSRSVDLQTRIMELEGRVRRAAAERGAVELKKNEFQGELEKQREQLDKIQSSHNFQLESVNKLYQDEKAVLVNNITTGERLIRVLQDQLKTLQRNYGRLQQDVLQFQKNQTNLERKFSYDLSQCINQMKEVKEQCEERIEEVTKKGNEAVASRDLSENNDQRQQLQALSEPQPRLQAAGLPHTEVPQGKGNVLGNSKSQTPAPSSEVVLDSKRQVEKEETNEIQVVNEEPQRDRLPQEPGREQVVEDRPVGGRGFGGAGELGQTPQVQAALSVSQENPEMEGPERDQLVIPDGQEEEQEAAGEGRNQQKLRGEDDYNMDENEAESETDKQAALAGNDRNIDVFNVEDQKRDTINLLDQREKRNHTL

[2] = biological target: T2, GP73 (Golgi protein 73) (Homo sapiens) (UniProt Q8NBJ4); assay: competition (ELASA, antibody blocking); conditions: anti-GP73 antibody 0.03125-1 ug/mL preincubated, binding falls with antibody concentration; 20 mM HEPES, 120 mM NaCl, 5 mM KCl, 1 mM CaCl2, 1 mM MgCl2, pH 7.3, 37 C, 2 h; plates blocked with 3% BSA; washes with binding buffer; recombinant protein; single-stranded DNA
T2 sequence (looked up, limits assumed): T1 sequence (looked up, limits assumed)

[3] = biological target: T2, GP73 (Golgi protein 73) (Homo sapiens); assay: ELASA (plate-immobilized GP73, anti-Dig-ALP); conditions: 1 mM Mg2+, 1 mM Ca2+, GP73 coated at 0.5, 1 and 2 ug/mL; 20 mM HEPES, 120 mM NaCl, 5 mM KCl, 1 mM CaCl2, 1 mM MgCl2, pH 7.3, 37 C, 2 h; plates blocked with 3% BSA; washes with binding buffer; recombinant protein; single-stranded DNA

Sequence | binding result [1] | binding result [2] | Kd [3] [nM]
ACGCTCGGATGCCACTACAGTTGGTTTTTTTTTGTTATTTAGAGTAAAAACCTTGTGTGTAGTGACTCATGGACGTGCTGGTGAC [A10-2 biotin] | binds | – | –
ACGCTCGGATGCCACTACAGTTGGTTTTTTTTTGTTATTTAGAGTAAAAACCTTGTGTGTAGTGACTCATGGACGTGCTGGTGAC [A10-2] | – | binds more weakly | 127

— publication PMC4637037
